In all, about 52,000 sequences went through this assay and about 210 (0.4%) were called active.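 How the source made its calls: active means gene whose silencing raises cell survival under the drug, median off-target-corrected z-score across its silencing RNAs 2 or more; inactive means the rest.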 The list shows a part of the results.

The assay in a line: Resistance to Poly (ADP-Ribose) Polymerase inhibitor: Gene Identification via Genome-wide siRNA Screen. The note with it: mouse BRCA2 R2336H ES cells, olaparib, CellTiter-Glo viability; hits give high values. An outline of the steps:
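Genome-wide siRNA screen (3 siRNAs/gene, 20 nM) in mouse ES cells carrying hypomorphic BRCA2 R2336H; olaparib 500 nM added 48 h post-transfection, CellTiter-Glo viability 72 h later. Normalized to plate-median negative control; MAD z-scores, gene median, seed-adjusted.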
In general terms: ATP-based viability assays read luminescence as a measure of living cells.
In the case of CCUCGAGUCAUGGUGUAUCTT against Ndufb9, the z-score is inactive: 0.891.
Turning to GCGACACACCAGAAGUUAUTT against Fgf7, the z-score was inactive: -1.35.
Then “GGAGAGAUGGAUGGAAAAATT against 1700127D06Rik”, with inactive: -2.55.
Regarding GCAGAAUGUCACUAAGUGCTT against Sdcbp2, the z-score is inactive: 0.671.
GGAGUGCAGUACAAAGGACTT against Ahsa1: the z-score is inactive: -1.21.
In the case of “CCGCCAGACCUUCAUUACCTT against 2200003E03Rik”, the z-score was inactive: -0.0363.
Take “GGGACCUUGUAAUAGCAAATT against 1110054O05Rik”: the z-score is inactive: 1.23.
Take GCCUCAGUUAUUUAAUGAATT against Mpp3: the z-score is inactive: 0.434.
Regarding GGAGAUCAAUCUAGAUUUGTT against Atpaf1, the z-score is inactive: 1.33.
With “GGAGCAGGUUACCAGAAAATT against E130114P18Rik” the figure was inactive: -1.2.
For GGCAGAGUAAGAGUGCACUTT against Olfr1238, the z-score was inactive: -0.225.
Regarding GGCUUUCCGGAGUGAUAGUTT against Scamp3, the z-score is inactive: -0.104.
For the sequence “GCUGAGGUUGAACUUUAUUTT against C330023M02Rik”, the z-score was inactive: -1.08.
Regarding “GGAUAUGGUUAAAGCCAAATT against 1810010M01Rik”, the z-score is inactive: 0.0946.
With GCAGUGUAACAUGAUCAAUTT against Scarb1, the z-score was inactive: 0.241.
For the sequence GGAGACACAGGAGAGAUACTT against Brd8, the z-score was inactive: -1.02.
Turning to GGCUCAGGACAUGUAUUACTT against Rsb30, the z-score is inactive: -0.012.
Take “GGUGAUGUCCUAUUUCAAATT against 1810033M07Rik”: the z-score was inactive: 0.417.
On to CUAGUAGGGUCAGAAUUUUTT against Olfr329, for which the z-score was inactive: 2.11.
As to “GGAUGUCAUUAAACCUAAGTT against D8Ertd233e”, the z-score is inactive: 0.062.
As for GCAGAUCCGGUAUUUACAUTT against AW552001, the z-score is inactive: 0.699.
CCUCUUAGAUCAGGAUUAUTT against Usp37: the z-score is inactive: -0.0502.
In the case of GGAAAGCACAUCCUCUUUGTT against Gpx6, the z-score is inactive: -2.19.
Take “GGGCCUGCUCUCUUUUCUGTT against 5730414C17Rik”: the z-score is inactive: -0.684.
With “CGUGCAGAGGUGGUACCAATT against 9830109N13Rik”, the z-score is inactive: -1.27.
Then “CCAAAUUCCUAUCAAGUUUTT against 2810417D08Rik”, with inactive: 0.0937; and GGUAAAGAAAUCCUUCAAATT against Syt6, with inactive: -0.68; and GGUGAACACGUUUGUAAUGTT against Pcnx, with inactive: -0.477.

The values above are taken from PubChem BioAssay AID1347423 (Functional Genomics Laboratory (NCATS/FGL), 2020).
